Values from PubChem BioAssay AID504774 (Drosophila RNAi Screening Center, 2011)
The deposit covers about 23,000 reagents; this is a random part of those with a known target gene and a result. 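Values are quantile-normalised luminescence on an arbitrary scale; higher means more cells surviving MMS.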 Names joined by + are all predicted targets of the reagent. Further read-outs or replicates are left out here. No sequences are given here.

Aim: 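Genes required for cells to withstand methyl methanesulphonate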 (primary screen)
Cell system: Drosophila Kc167 cells
Reagent: long dsRNA against Drosophila genes, about 0.25 µg dsRNA per well
Time to read-out: about 6 days: 3 days knock-down, then 3 days with or without MMS
Challenge: methyl methanesulphonate 0.004% (w/v) for 3 days after knock-down
Measured: 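ATP-dependent luminescence as a measure of live cells in MMS-exposed wells, quantile normalised within each plate, with replicate values also given as a mean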
Direction: mean viability with MMS: higher = more surviving cells after MMS

mean viability with MMS, by target gene and reagent
BCAS2: DRSC15693 3.47e6
beat-Vb: DRSC12940 3.70e6; DRSC14844 1.82e6; DRSC14845 3.34e6
Prosbeta2R2: DRSC12193 3.61e6
CG34007: DRSC01790 3.58e6
eIF4E3: DRSC10952 3.54e6
PRL-1: DRSC03393 3.45e6
CR42546: DRSC03711 3.54e6
Jhbp16: DRSC15039 3.71e6
CG32507: DRSC20421 3.51e6
CG9068: DRSC07329 3.68e6
Fmr1: DRSC16674 3.56e6
Oseg4: DRSC08548 3.48e6
Snr1: DRSC12369 3.55e6
CG7201: DRSC10786 3.68e6
CG32536 + CG32537: DRSC20074 3.73e6
CG5541: DRSC19946 3.72e6
CG4783: DRSC15644 2.07e6
retm: DRSC03252 3.64e6
CG13875: DRSC08345 3.59e6
FucTA: DRSC10733 3.53e6
CG8301: DRSC16405 3.44e6
CG1441: DRSC06448 3.67e6
Gbeta5: DRSC17754 3.61e6
vilya: DRSC18588 3.47e6
CG7059: DRSC16187 3.51e6
CR31032: DRSC22457 3.74e6
CG13151: DRSC06276 3.46e6
Spn77Bb + Spn77Bc: DRSC10689 3.80e6; DRSC11793 3.69e6
CG15099: DRSC06528 3.70e6
Obp56a: DRSC06085 3.59e6
Ced-12: DRSC02840 3.50e6
CG15211: DRSC19657 3.61e6
TTLL6B: DRSC15932 3.42e6
CG1142: DRSC12531 3.60e6
mRpS10: DRSC15557 3.54e6
nec: DRSC06769 3.71e6
BomT3: DRSC13537 3.62e6; DRSC15871 3.78e6
Rh4 + sina: DRSC11396 3.72e6
Nhe1: DRSC00762 3.36e6
eIF3g1: DRSC18427 2.91e6
Or98P: DRSC22948 3.61e6
CG2772: DRSC00530 3.54e6
cutlet: DRSC00284 3.58e6
lbk: DRSC07178 3.65e6
Cyfip: DRSC15679 3.48e6
scyl: DRSC11392 3.90e6
side-IV: DRSC14833 3.58e6
CG6149: DRSC10593 3.48e6
RAF2: DRSC10443 3.56e6; DRSC10454 3.68e6
Dop1R2: DRSC13958 3.52e6; DRSC15379 3.51e6
CG17029: DRSC10240 3.67e6
rdgBbeta: DRSC07672 3.60e6
CG7601: DRSC14131 3.61e6
Ccm3: DRSC15711 3.56e6
CG9550: DRSC03262 3.58e6
ATPsynbetaL: DRSC10503 3.60e6
stc: DRSC03620 3.47e6
snf: DRSC18835 3.37e6
Scm: DRSC16853 3.50e6
CG5327: DRSC06930 3.67e6
Cpsf73: DRSC16291 3.48e6
Inx2: DRSC18783 3.60e6
